Test results taken from patent publication US9709557B2, “Anthraquinone based near IR emitting compounds and uses thereof” (LIFE TECHNOLOGIES CORPORATION, priority 2008, dated 2017).

Tested on: THP-1 monocytic cells
Assay: Imaging of nuclear proteins: NF-kB nuclear translocation with nuclear counterstain (Example 40)
Format: cell-based

For `CN(C)CCNC(=O)CNc1ccc(O)c2c1C(=O)c1c(O)ccc(N)c1C2=O` [Compound 9], the “similarity score (NF-kB nuclear translocation, untreated vs LPS)” value (0.1% TRITON X-100 permeabilization buffer) was 2.10, the “similarity score (NF-kB nuclear translocation, untreated vs LPS)” value (0.1% saponin permeabilization buffer (negative control)) was 0.04 and the “similarity score (NF-kB nuclear translocation, untreated vs LPS)” value (0.25% TRITON X-100 permeabilization buffer) was 2.00. For the same molecule, the “similarity score (NF-kB nuclear translocation, untreated vs LPS)” value (methanol/0.1% TRITON X-100 permeabilization buffer) was 2.26.
